In one assay the target is Flag-Gli1 WT (human) (UniProt P08151). The assay is described as follows: co-IP; DAOY cells transfected with Flag-Gli1 (WT or mutant) and HA-14-3-3 epsilon; treated with or without A-769662 for the indicated times; Flag-Gli1 immunoprecipitated, western blot of eluted proteins with Flag and HA antibodies. On the technique in general: In western blotting, separated proteins are transferred to a membrane and probed.

Sequences of proteins named here, by UniProt entry; tags and fusion partners are left off. A change or cut given only in a name is not applied to a line headed by its entry.
UniProt P08151: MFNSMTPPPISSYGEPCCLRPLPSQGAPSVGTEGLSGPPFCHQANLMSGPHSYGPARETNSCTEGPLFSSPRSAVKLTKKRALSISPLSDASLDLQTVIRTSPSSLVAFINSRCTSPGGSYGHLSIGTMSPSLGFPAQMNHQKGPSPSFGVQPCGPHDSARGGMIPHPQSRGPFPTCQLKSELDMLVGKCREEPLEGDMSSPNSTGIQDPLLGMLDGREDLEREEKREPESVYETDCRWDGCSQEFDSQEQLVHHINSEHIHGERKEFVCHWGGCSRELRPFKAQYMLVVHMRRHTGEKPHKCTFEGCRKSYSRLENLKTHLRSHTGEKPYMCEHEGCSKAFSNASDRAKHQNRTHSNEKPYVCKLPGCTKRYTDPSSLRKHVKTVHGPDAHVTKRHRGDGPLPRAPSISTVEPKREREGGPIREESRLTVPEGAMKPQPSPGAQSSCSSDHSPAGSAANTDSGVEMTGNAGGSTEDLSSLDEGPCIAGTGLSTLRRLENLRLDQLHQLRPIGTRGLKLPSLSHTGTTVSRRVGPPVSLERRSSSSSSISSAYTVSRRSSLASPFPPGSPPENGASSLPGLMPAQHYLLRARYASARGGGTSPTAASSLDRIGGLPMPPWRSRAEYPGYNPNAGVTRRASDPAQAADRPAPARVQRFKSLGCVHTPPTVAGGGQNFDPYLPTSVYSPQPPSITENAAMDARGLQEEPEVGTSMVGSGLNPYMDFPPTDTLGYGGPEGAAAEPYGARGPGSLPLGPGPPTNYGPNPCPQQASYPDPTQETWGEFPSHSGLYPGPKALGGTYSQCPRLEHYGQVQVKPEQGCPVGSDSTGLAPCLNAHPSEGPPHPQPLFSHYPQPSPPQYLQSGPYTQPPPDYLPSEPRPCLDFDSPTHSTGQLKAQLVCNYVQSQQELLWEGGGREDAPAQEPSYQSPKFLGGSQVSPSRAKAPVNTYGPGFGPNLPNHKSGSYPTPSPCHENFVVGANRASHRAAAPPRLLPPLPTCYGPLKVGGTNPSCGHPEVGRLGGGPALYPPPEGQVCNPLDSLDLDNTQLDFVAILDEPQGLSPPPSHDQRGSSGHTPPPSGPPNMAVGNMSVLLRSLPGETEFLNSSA
UniProt P62258: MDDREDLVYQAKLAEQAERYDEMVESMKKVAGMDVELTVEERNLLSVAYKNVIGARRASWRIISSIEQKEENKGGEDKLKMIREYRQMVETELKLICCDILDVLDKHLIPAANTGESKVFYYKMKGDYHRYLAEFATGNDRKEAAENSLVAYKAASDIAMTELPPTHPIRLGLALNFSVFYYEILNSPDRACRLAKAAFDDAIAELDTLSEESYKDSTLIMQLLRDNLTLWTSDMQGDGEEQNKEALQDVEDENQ

Assay [1] addresses Flag-Gli1 S408E mutant (human) (UniProt P08151). The assay is described as above.

These are yes or no findings as the source states them, for the method shown. In cells and extracts the contact can be indirect. Some entries that bind do so weakly or less than the wild type.

As to “HA-14-3-3 epsilon (from UniProt P62258 1-255)”, the binding result (with Flag-Gli1 WT (human); in assay [1]) was “binds” in each case.

The values are drawn from PMC4891058.
